Results: PubChem BioAssay AID1347076 (National Center for Advancing Translational Sciences (NCATS), 2019)
The whole screen tested about 400,000 compounds, of which about 13,000 (3.2%) were called active. The shares of active, inactive and inconclusive entries below differ from those in the screen. Calls follow the shape of the dose curve; as a rule, active = well fitted cell-killing curve with a large enough effect; inconclusive = small, poorly fitted or top-dose-only effect, or effect the other way; inactive = flat fitted curve, though single readings scatter. Potencies of inconclusive entries are doubtful fits and often do not repeat.

experiment: qHTS assay for MDR1-selective chemotherapeutics: Primary screen using the drug-selected MDR subline cells KB-V1; conditions: KB-V1 MDR cells viability, CellTiter-Glo, 72 h; series mostly up to 46.1 µM; also: nearly all actives have a fitted effect of over 60% in size
Procedure, shortened: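 Drug-selected KB-V1 cells, grown in DMEM lacking phenol red with 10% FBS, receive compound titrations; after three days at 37 degrees C, surviving cell ATP is quantified by CellTiter-Glo luminescence and responses normalized and curve-fitted.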
Potency is read from the fitted curve at half-maximal effect.

**Q.** Which Potency does the source give for `Cc1ccc(C(=O)C2CC2)cc1C` here?
**A.** inconclusive: 29.1 µM [rising, single point]

**Q.** With `C#Cc1ccc([C@@H]2C=C(C(=O)N3CCOCC3)O[C@H](OCCCCO)C2)cc1` as the molecule, how does the Potency read?
**A.** inconclusive: 0.92 µM [cytotoxic, full curve]

**Q.** Which Potency does the source give for `c1ccc(Nc2cc(-c3ccccc3)nc3ncnn23)cc1` here?
**A.** active: 14.6 µM

**Q.** Which Potency does the source give for `CCOCCCNC(=O)CNC(=S)N(Cc1ccc(C)cc1)Cc1ccco1` here?
**A.** inconclusive: 20.6 µM [cytotoxic, single point]

**Q.** With `O=C(Nc1ccn(CCCN2CCN(c3ncccn3)CC2)c(=O)n1)OCc1ccccc1` as the molecule, how does the Potency read?
**A.** inconclusive: 10.3 µM [cytotoxic, partial curve]

**Q.** For `O=C(Nc1ccc(F)cc1)C1CCN(c2nc3ccccc3nc2C(F)(F)F)CC1`, which Potency is on record?
**A.** inactive

**Q.** With `CC(C)(C)c1ccc(C(=O)C[n+]2ccc(Cl)c3ccc(Cl)cc32)cc1` as the molecule, how does the Potency read?
**A.** inconclusive: 0.259 µM [cytotoxic, full curve, poor fit]

**Q.** For `COC(=O)c1sc(N)c(C(=O)OC)c1Cn1ncc(Cl)c(Cl)c1=O`, which Potency is on record?
**A.** inconclusive: 18.4 µM [cytotoxic, single point]

**Q.** With `CC(C)Cn1c(SC(C)C(=O)Nc2ccc3c(c2)OCCO3)nc2ccccc2c1=O` (stereo unspecified) as the molecule, how does the Potency read?
**A.** active: 20.6 µM

**Q.** Which Potency does the source give for `CCOc1cc(C2C3=C(CCCC3=O)Nc3ccc4ncccc4c32)ccc1O` (stereo unspecified) here?
**A.** inactive

**Q.** For `CN(C)CCNc1cccc2sc3ccc(O)cc3c(=O)c12`, which Potency is on record?
**A.** active: 23.1 µM

**Q.** Which Potency does the source give for `Cn1c(Sc2ccc(Cl)cc2)c(C=O)c2ccccc21` here?
**A.** inconclusive: 23.1 µM [cytotoxic, single point]

**Q.** For `NC(c1csc(NC(=O)Nc2ccccc2Cl)n1)C1CCCCC1` (stereo unspecified), which Potency is on record?
**A.** inactive

**Q.** With `O=C(Nc1cccc(NC(=O)c2cccs2)c1)c1ccc([N+](=O)[O-])o1` as the molecule, how does the Potency read?
**A.** inconclusive: 10.3 µM [cytotoxic, partial curve, poor fit]

**Q.** For `Cc1cccc(NC(=O)c2cc(-c3cccnc3)nc3c(C)cccc23)n1`, which Potency is on record?
**A.** inconclusive: 8.2 µM [cytotoxic, partial curve, poor fit]

**Q.** For `Cc1csc2nc(O)c(C(=O)NCCCc3ccccc3)c(=O)n12`, which Potency is on record?
**A.** active: 16.4 µM

**Q.** Which Potency does the source give for `CC1(C)CC2(C)OC2C2(C1)N=NC(=Nc1ccccc1)O2` (stereo unspecified) here?
**A.** inactive

**Q.** For `CCOc1c(CC2C(=O)Nc3ccc(Br)cc32)cccc1OC` (stereo unspecified), which Potency is on record?
**A.** inactive

**Q.** For `CCc1nnc(NC(=O)CSc2nnc(C)n2-c2ccc(C)cc2)s1`, which Potency is on record?
**A.** active: 20.6 µM

**Q.** Which Potency does the source give for `Nc1cc(S(=O)(=O)Nc2ccccc2Cl)ccc1N1CCCCC1` here?
**A.** inconclusive: 29.1 µM [cytotoxic, single point]

**Q.** Which Potency does the source give for `CCc1ccccc1NC(=S)N(CCCN1CCOCC1)Cc1ccccn1` here?
**A.** inconclusive: 18.4 µM [cytotoxic, single point]

**Q.** With `O=C(COC(=O)c1ccccc1F)NC1CC1` as the molecule, how does the Potency read?
**A.** inconclusive: 32.6 µM [cytotoxic, single point]

**Q.** Which Potency does the source give for `CCOc1ccc2oc(C(=O)N(CC)CC(=O)Nc3ccc(NC(C)=O)cc3)c(C)c2c1` here?
**A.** inconclusive: 9.2 µM [cytotoxic, partial curve]

**Q.** Which Potency does the source give for `COc1ccccc1NC(=S)NCCSc1ccc(Cl)cc1` here?
**A.** inactive

**Q.** For `COc1ccc2cc(C#N)c(N3CCN(C(=O)c4ccccc4C)CC3)nc2c1`, which Potency is on record?
**A.** inconclusive: 20.6 µM [cytotoxic, single point]

**Q.** Which Potency does the source give for `NS(=O)(=O)OCC(Cc1ccccc1)N1C(=O)c2ccccc2C1=O` (stereo unspecified) here?
**A.** inconclusive: 0.184 µM [rising, full curve]

**Q.** For `COc1cccc(C(=O)Nc2sc3c(c2C(=O)O)CCCC3)c1`, which Potency is on record?
**A.** inconclusive: 29.1 µM [cytotoxic, single point]

**Q.** With `O=C1CSC(=Nc2ccc(Cl)cc2)N1Cc1cccnc1` as the molecule, how does the Potency read?
**A.** inconclusive: 29.1 µM [cytotoxic, single point]

**Q.** Which Potency does the source give for `COc1cc(O)c(CCC(=O)c2ccc(OC)c(OC)c2)c(OC)c1` here?
**A.** inconclusive: 18.4 µM [cytotoxic, single point]

**Q.** Which Potency does the source give for `Nc1cccc(-c2nc3ccc(C(=O)c4ccccc4)cc3[nH]2)c1` here?
**A.** active: 3.66 µM

**Q.** Which Potency does the source give for `CCCC(=O)Nc1cccc(NC(=O)CN2CCN(c3ccccc3OC)CC2)c1` here?
**A.** active: 2.59 µM

**Q.** Which Potency does the source give for `CCOC(=O)C1(CCc2ccccc2)CCN(Cc2c(O)cccc2OC)CC1` here?
**A.** inconclusive: 29.1 µM [cytotoxic, partial curve, poor fit]

**Q.** For `Cc1ccc(C)c(C(=O)COC(=O)c2ccccc2N2C(=O)C3C4CCC(C4)C3C2=O)c1` (stereo unspecified), which Potency is on record?
**A.** active: 4.11 µM

**Q.** With `COc1cc(-c2cc(N)n(S(=O)(=O)c3ccccc3)n2)cc(OC)c1OC` as the molecule, how does the Potency read?
**A.** inconclusive: 18.4 µM [cytotoxic, single point]

**Q.** For `CC(C)c1ccc(-c2c(C#N)c(N)nc(SCC(=O)N3CCCCC3)c2C#N)cc1`, which Potency is on record?
**A.** inconclusive: 0.92 µM [cytotoxic, partial curve, poor fit]

**Q.** For `O=C(CN(C(=O)CCC(=O)Nc1ccccn1)c1ccc(F)cc1)NCCc1ccccc1`, which Potency is on record?
**A.** inconclusive: 25.9 µM [cytotoxic, single point]

**Q.** Which Potency does the source give for `COC(=O)c1cccc(NC(=O)CN2CCN(c3ccc(OC)cc3)CC2)c1` here?
**A.** inconclusive: 29.1 µM [cytotoxic, single point]

**Q.** Which Potency does the source give for `Cc1ccc(-c2nc3ccc(Cl)cn3c2Cc2cccc(Cl)c2)cc1` here?
**A.** inactive

**Q.** With `CNc1cncc(-c2ccc(C)cc2)n1` as the molecule, how does the Potency read?
**A.** inactive

**Q.** For `N#Cc1c2n(c(=S)n(-c3ccccc3)c1=O)CCCCC2`, which Potency is on record?
**A.** inconclusive: 16.4 µM [cytotoxic, partial curve, poor fit]

**Q.** For `CC(C)=C1C(=O)NN(c2ccc(F)c(Cl)c2)C1=O`, which Potency is on record?
**A.** inactive

**Q.** With `COC(=O)c1ccccc1NC(=O)CSCC(=O)Nc1ccccc1` as the molecule, how does the Potency read?
**A.** inconclusive: 16.4 µM [cytotoxic, single point]

**Q.** With `Cc1cc(O)cc(C)c1NS(=O)(=O)c1ccc2ccccc2c1` as the molecule, how does the Potency read?
**A.** inactive

**Q.** For `CC1=C(C(=O)OCc2ccccc2)C(c2ccc(N(C)C)cc2)NC(=O)N1` (stereo unspecified), which Potency is on record?
**A.** inconclusive: 8.2 µM [cytotoxic, partial curve]

**Q.** Which Potency does the source give for `CNc1nc(Oc2ccccc2C(=O)OC)nc(SC)n1` here?
**A.** inconclusive: 13 µM [cytotoxic, partial curve, poor fit]

**Q.** For `C/C(CCc1ccc2c(c1)OCO2)=N\NC(=O)c1ccccc1Br`, which Potency is on record?
**A.** inconclusive: 10.3 µM [rising, partial curve, poor fit]
